Library screening results

Sequences of proteins named here, by UniProt entry; tags and fusion partners are left off.
UniProt E9BF75, entry or part of it: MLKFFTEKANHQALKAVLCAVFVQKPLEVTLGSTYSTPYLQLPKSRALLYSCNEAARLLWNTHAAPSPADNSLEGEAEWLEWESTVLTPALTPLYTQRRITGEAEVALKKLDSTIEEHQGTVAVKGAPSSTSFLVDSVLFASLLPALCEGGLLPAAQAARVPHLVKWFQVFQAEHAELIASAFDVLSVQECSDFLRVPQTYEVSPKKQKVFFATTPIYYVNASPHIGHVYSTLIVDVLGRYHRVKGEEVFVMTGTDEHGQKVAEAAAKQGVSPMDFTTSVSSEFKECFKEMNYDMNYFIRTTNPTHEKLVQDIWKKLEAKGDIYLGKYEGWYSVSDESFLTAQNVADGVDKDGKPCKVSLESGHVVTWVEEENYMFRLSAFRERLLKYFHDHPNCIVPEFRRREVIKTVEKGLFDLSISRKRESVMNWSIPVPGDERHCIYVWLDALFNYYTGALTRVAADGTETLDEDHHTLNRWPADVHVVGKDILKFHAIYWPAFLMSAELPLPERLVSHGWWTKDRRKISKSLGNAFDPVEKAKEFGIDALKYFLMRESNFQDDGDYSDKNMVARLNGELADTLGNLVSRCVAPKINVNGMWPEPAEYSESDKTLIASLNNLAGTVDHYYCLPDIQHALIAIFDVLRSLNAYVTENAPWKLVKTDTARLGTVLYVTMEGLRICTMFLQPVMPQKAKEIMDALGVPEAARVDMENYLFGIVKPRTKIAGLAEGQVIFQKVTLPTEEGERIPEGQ

Results are percentages, as filed.
How 0% and 100% were set is not recorded. Most values in the screen are low, and negative values occur.
This is an unselected part of the compounds tested.
A dash means the value is not listed here; it may have been measured.

Mtb heat-shock: 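Assay on Mycobacterium tuberculosis, filed only as a heat shock assay from Cornell; the read-out is not stated. The concentration is filed as 10 mM, unlikely as a test dose, so the dose is not known. Higher reads as stronger inhibition (inferred: compounds with an IC50 in retests scored well above the rest). Of about 69,000 compounds tested this way, about 930 (1.4%) reached 50% or more in at least one test.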
LdMetRS: 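Primary screen of methionyl-tRNA synthetase; the read-out is not stated. Target: Methionyl-tRNA synthetase (putative), Leishmania donovani (UniProt E9BF75). The test concentration is not given. Values are per cent inhibition. Of about 68,000 compounds tested this way, about 24 (0.035%) reached 50% or more in at least one test.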
Mtb growth Cornell: 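Whole-cell assay for inhibitors of Mycobacterium tuberculosis growth, labelled Cornell in the record; the read-out is not stated. The concentration is filed as 10 mM, unlikely as a test dose, so the dose is not known. Higher means stronger inhibition (inferred from two other growth screens of the library). About 53,000 compounds were tested under these conditions; 1.7% (about 900) showed 50% or more at least once.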

SMILES,Mtb heat-shock,LdMetRS,Mtb growth Cornell
c1cnc(N2C[C@H]3CCN(c4cccnc4)C[C@H]3C2)nc1,-,16.19,-
CCc1nc(C2CCCN(C(=O)CN(C)S(C)(=O)=O)C2)no1 (stereo unspecified),-10.81,15.28,-
CCN(CC)C(=O)CN1CCc2c(nc(C3CCNCC3)nc2NC)C1,-,7.979,-
COCCN1CCC(C(=O)N(C)Cc2c[nH]c3ccc(C)cc23)C1 (stereo unspecified),9.936,18.56,23.98
CN(C)C(=O)CO[C@H]1CN(Cc2cccc(F)c2)[C@@H]2CCCO[C@H]12,-,9.14,-
Cn1cc(-c2ncnc3c2CCN(CC2CCOC2)CC3)cn1 (stereo unspecified),-,14.66,-
CCc1ccc(CN2CCC3(CC2)NC(=O)CC3c2ccncc2)o1 (stereo unspecified),-,16.74,-
Cn1c(=O)c2sccc2n(Cc2ccccc2)c1=O,6.46,15.53,1.482
Cn1cc(CN2CCC(c3ccncc3)CC2)cn1,-21.25,11.49,9.056
CC(C)C(=O)N1CCCC(Cc2ncccn2)C1 (stereo unspecified),-6.609,11.01,13.61
Cc1nc(NCCN2CCCC2=O)cc(C2CN(C(C)C)CCO2)n1 (stereo unspecified),-14.33,5.975,2.793
Cc1cc(C(=O)NS(=O)(=O)Cc2ccon2)c(C)o1,-15.69,20.36,-49.38
Cn1cc(CN2C[C@H](N3CCOCC3)[C@@H]3OCCC[C@@H]32)cn1,-,10.03,-
CCN1CCOCC12CCN(c1nccs1)CC2.O=C(O)C(F)(F)F,1.204,-,-42.37
CCCn1nnnc1CN1Cc2ccccc2CC1c1nnc(C)o1 (stereo unspecified),1.654,11.63,-14.38
Cn1ccnc1CN1CC[C@H](O)[C@@H](n2ccc(=O)[nH]c2=O)CC1,-3.923,16.18,-11.38
CCCS(=O)(=O)N1CCC2(CC1)CN(CC1CCOC1)c1ccccc12.O=C(O)C(F)(F)F (stereo unspecified),28.34,-,53.88
O=C([C@@H]1Cc2[nH]cnc2CN1Cc1cc2ccccc2o1)N1CCCC1,-4.312,0.5495,-
Cc1cc(N2CCCC(O)(CN(C)C)CC2)nc(-c2ccccc2)n1 (stereo unspecified),6.962,13.4,-9.454
CCOc1ccccc1CN(CC)Cc1ccc(S(=O)(=O)NC)cc1,8.295,13.19,-
Cc1nnsc1C(=O)N1CCC(c2nc3ccccc3[nH]2)CC1,-9.741,9.474,0.6445
O=C(c1ccccn1)N1Cc2ccccc2OC2(CCOCC2)C1,-5.181,19.29,-13.48
Cc1nc(C)c(CC(=O)Nc2nnc(C)s2)c(=O)[nH]1,4.422,16.33,-
CC(=O)N1CCCC1c1ccc(Br)cn1 (stereo unspecified),5.678,6.854,-5.926
Cc1cnn(CC2CCCCN2C(=O)Cc2cn3ccsc3n2)c1 (stereo unspecified),-19.11,6.59,-11.61
CC(=O)N1CCO[C@@H]2CN(S(=O)(=O)c3ccc(F)cc3)CC[C@@H]2C1,-,12.02,-
[H][C@@]12CCN(S(=O)(=O)C3CC3)C[C@@]1([H])O[C@H](c1ccnc(C)n1)C2,-16.32,-,-
O=C(NC1CC1)C1CCc2nnc(C3CC3)n21 (stereo unspecified),-26.03,10.29,-
O=S(=O)(c1ccccc1F)N1CCCC(c2nccs2)C1 (stereo unspecified),-4.613,14.15,16.89
Cc1ccc(-c2ccnc(N[C@H]3COC[C@@H]3N3CCCCC3)n2)c(C)n1,-22.67,11.06,3.683
[H][C@]12CC[C@]([H])(CN(Cc3ccc(Cl)cc3)C1)N(Cc1c(C)noc1C)C2=O,-21.64,-,9.023
COC(=O)C(C)(C)NC(=O)c1scnc1Cl,-3.358,-0.5495,-23.23
Cc1cc(C)n(CC2CCCN2CC(=O)N(C)Cc2ccc(C)o2)n1 (stereo unspecified),0.5184,8.896,-
Cn1cc(N2CCN(c3ccc(C#N)cc3Br)CC2=O)cn1,-113.4,15.41,-
[H][C@]12CCC[C@@]1(COC)CN(C(=O)COCC)C2,39.17,-,-13.71
CCn1nc(C)c(CNC(=O)c2nnc3ccc(Cl)cc3n2)c1C,42.92,5.382,64.24
CCOc1ccccc1C(=O)N1CCCC(c2nccn2CCOC)C1 (stereo unspecified),-17.73,0.5376,-33.62
Cc1nn(-c2ccccn2)c(C)c1[C@@H]1C=C[C@@H](NC(=O)CCC(=O)O)C1,-8.422,12.09,-
CC(C)c1nn(C)c(N(C)C)c1CNC1CCN(C2CC2)CC1,-,20.36,-
CN1CCOC(C(=O)N2CCOC3(CCCC3)C2)C1 (stereo unspecified),-29.07,6.849,-
CCOc1ccc(Br)cc1C1CCCCN1 (stereo unspecified),-,18.08,-
COc1ccc(CN2CCN(Cc3nccn3C)C(C)C2)cc1F (stereo unspecified),6.072,17.53,-
CCc1nccn1-c1cccc(C2CCCN(C3CCCCC3)C2)n1 (stereo unspecified),-6.255,20.47,-
O=C(O)C(F)(F)F.[H][C@@]12CCN(Cc3c(C)noc3C)C[C@]1(C(=O)N(C)C)CCO2,-9.212,-,-5.378
CN(Cc1cnn(C)c1)c1nccc(-c2cc(C(=O)O)ccn2)n1,-3.051,4.961,-
O=C(CC(SC1CCCCC1)C(=O)O)c1ccc(Cl)cc1 (stereo unspecified),41.73,12.94,11.66
O=C(CNC(=O)C1CC1)Nc1c(F)cccc1Oc1ccccc1,0.3768,6.72,-4.389
Cc1csc(CNC(=O)N2CCCC(c3nncn3C)C2)n1 (stereo unspecified),-1.592,13.64,-
Cc1nc(COc2ccc(S(=O)(=O)N(C)C)cc2)sc1C,3.5,15.48,-3.181
CC(C)c1nn(C)c(N(C)C)c1CNC(C)c1ccc2c(c1)OCO2 (stereo unspecified),-,13.14,-
COc1ccc2nnc(CCCC(=O)NCCc3ccccn3)n2n1,-2.511,5.943,23.08
CN(Cc1cccnc1)[C@@H]1CN(Cc2ccccn2)[C@@H]2CCCO[C@H]12,-,13.42,-
Cc1nnc(CN(C)CC2CCCCC2)o1,16.61,9.309,6.214
COCC1(CNc2cc(C(C)C)nc(N)n2)CC1,-1.988,16.15,1.767
COc1ccc(OC)c(-n2nnnc2SCC2CCCN(C)C2)c1 (stereo unspecified),-18.26,2.145,2.117
CCN1C(=O)C2(CCCCC2)NC12CCSCC2,-7.468,22.73,7.027
Cc1cc(C)n(NC(=O)c2ccc(Cl)cc2Cl)c(=O)c1,-5.158,2.973,-14.16
O=C1C[C@H]2[C@@H](CCN2C(=O)Cc2ccsc2)N1Cc1cccnc1,-,14.57,-
Cc1cccc(OCC(O)CNCc2c(C)nn(C)c2N(C)C)c1 (stereo unspecified),1.794,12.81,33.74
c1ccc2c(c1)CCN(c1nc(-c3ccncc3)nc3c1CCNC3)C2,105.2,29.24,18.38
O=C(CCc1ccccc1)NCC(O)c1c(F)cccc1F (stereo unspecified),-12.91,18.78,-
CC(C)c1noc(C[S+]([O-])CC(=O)Nc2cc(F)ccc2F)n1 (stereo unspecified),-23.42,4.381,57.68
CCn1ccc2ccnc(CC3CN(C(=O)c4ccc(F)cc4)C3)c21,-7.677,22.15,4.879
NC(=O)C1CCN(C(=O)c2ccn(-c3ccc(F)cc3)n2)CC1,-14.22,5.028,-
CN(C)CCN(Cc1ccccn1)C(=O)Nc1cccc(F)c1,7.475,9.42,-6.932
N#CCc1ccc(NC(=O)CNc2ccc(Br)cc2F)cc1,-20.6,7.958,10.15
Cc1ccc(C)c(Oc2ccc(CNC(=O)C3CNC(=O)N3)cn2)c1 (stereo unspecified),-16.71,23.81,-23.03
O=C1CN(Cc2cn(CC3CCN(C4CCSCC4)CC3)nn2)CCN1,-6.102,3.484,-
COc1ccc(SC(C)C(=O)N2CCC(C(=O)N3CCCC3)CC2)cc1 (stereo unspecified),7.325,9.749,-60.06
COc1ccc(Oc2ccc(CNC(=O)C(C)n3cncn3)cn2)cc1 (stereo unspecified),4.978,10.87,-8.913
O=C(O)c1cc(S(=O)(=O)Nc2ccc(Cl)cc2)cc2c1OCCO2,-2.48,14.58,-
CCc1nc2c(c(NC3CCC3)n1)CCN(C(=O)CO)CC2,-22.08,7.886,-21.42
Cc1nc(C2CCCN(C(=O)c3cc(C)sc3C)C2)no1 (stereo unspecified),-7.266,8.696,31.43

For reference, 4 entries once more:

* c1ccc2c(c1)CCN(c1nc(-c3ccncc3)nc3c1CCNC3)C2 : Mtb heat-shock: 105.2%; LdMetRS: 29.24%; Mtb growth Cornell: 18.38%
* O=C(CNC(=O)C1CC1)Nc1c(F)cccc1Oc1ccccc1 : Mtb heat-shock: 0.3768%; LdMetRS: 6.72%; Mtb growth Cornell: -4.389%
* Cc1cc(N2CCCC(O)(CN(C)C)CC2)nc(-c2ccccc2)n1 (stereo unspecified) : Mtb heat-shock: 6.962%; LdMetRS: 13.4%; Mtb growth Cornell: -9.454%
* [H][C@]12CCC[C@@]1(COC)CN(C(=O)COCC)C2 : Mtb heat-shock: 39.17%; Mtb growth Cornell: -13.71%

The values are deposited in ChEMBL (CHEMBL3988442, “University of Dundee, Small-Polar-MMV Screening Library” (2021)).